According to publication doi:10.1101/2022.03.03.482736:
These are yes or no findings as the source states them, for the method shown.

Legend:
[1] = target: BmPvs25(N-tag) (Plasmodium vivax) (UniProt O96555); assay: SEC
[2] = target: BmPvs25(C-tag) (Plasmodium vivax) (UniProt O96555); assay: SEC

Substance	binding [1]	binding [2]
BmPvs25(N-tag) (from UniProt O96555 23-195) (domain or fragment)	no binding	–
BmPvs25(C-tag) (from UniProt O96555 23-195) (domain or fragment)	–	no binding
